Laboratory results published in patent US20090035303A1.
Results are given in words; binding and its absence hold for the method and conditions named. Some results given as binding are weak or reduced against the parent protein; the word gives no strength.

By UniProt entry, the sequences of proteins in these tests, tags left out. Where a name states a change or a piece, a line headed by the entry shows the natural chain unless it says otherwise.
UniProt Q9H7B4: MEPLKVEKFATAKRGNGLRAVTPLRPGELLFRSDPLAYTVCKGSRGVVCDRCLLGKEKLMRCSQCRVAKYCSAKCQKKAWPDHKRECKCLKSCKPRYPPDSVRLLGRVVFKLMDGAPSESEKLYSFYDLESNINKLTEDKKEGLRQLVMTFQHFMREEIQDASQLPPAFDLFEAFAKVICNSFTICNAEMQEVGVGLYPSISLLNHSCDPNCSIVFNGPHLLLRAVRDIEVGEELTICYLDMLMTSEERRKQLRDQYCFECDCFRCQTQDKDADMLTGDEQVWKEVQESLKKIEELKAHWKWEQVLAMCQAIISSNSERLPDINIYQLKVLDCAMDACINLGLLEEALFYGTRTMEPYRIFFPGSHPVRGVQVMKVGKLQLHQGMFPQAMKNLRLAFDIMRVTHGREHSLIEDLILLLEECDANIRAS

Biological target: ZNFN3A1 (human) (UniProt Q9H7B4)
Test: yeast two-hybrid screening

For “90-kD heat shock protein (HSP90A) (from UniProt P07900 1-732)”, the binding was “binds”.
